Reference: the supplement of paper PMC10735217
Counter-ions that a name gives are not always drawn. The list shows a part of the results. Repeats in this data set agree poorly, so a single value says little.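 Human kidney-derived cells stably carry a construct in which eight TEAD-binding elements drive luciferase, measured by luminescence in a drug-repurposing library screen. A hit is any compound whose signal exceeds the plate mean by more than five robust Z scores.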

Tested on: HEK293A TEAD-LUC reporter
Test: TEAD-luciferase reporter activity (YAP activation), robust Z score vs plate; higher = stronger YAP/TEAD activation
Conditions: 24 h

| SMILES | TEAD-luciferase reporter activity (compound concentration: 200 nM) | TEAD-luciferase reporter activity (compound concentration: 2 uM) | TEAD-luciferase reporter activity (compound concentration: 10 uM) |
| --- | --- | --- | --- |
| CC(COc1ccccc1)N(C)CCOC(c1ccccc1)c1ccccc1 (stereo unspecified) [prenoverine] | inactive: -1.17 | inactive: -0.295 | inactive: -0.749 |
| Cc1onc(-c2ccccc2)c1C(=O)N[C@@H]1C(=O)N2[C@@H]1SC(C)(C)[C@@H]2C(=O)O [Oxacillin sodium monohydrate] | inactive: 0.168 | inactive: 0.234 | inactive: 0.434 |
| CCCCCCCCOCCOC(=O)CN(CC(=O)O)c1ccccc1OCCOc1ccccc1N(CC(=O)O)CC(=O)OCCOCCCCCCCC | active: 5.25 | inactive: -1.18 | inactive: -1.67 |
| COc1ccc(C(=O)N2Cc3ccccc3CC23CCCN(C(=O)CCN)C3)cc1 (stereo unspecified) | inactive: -0.347 | – | inactive: 3.24 |
| CC(C)NCC(O)COc1ccc(CCOCC2CC2)cc1 (stereo unspecified) | inactive: -2.19 | – | active: 7.47 |
| CC(C)NCC(O)COc1ccc(CCOCC2CC2)cc1 (stereo unspecified) [betaxolol, ophthalmic] | – | inactive: -1.4 | – |
| C=CCCCCCCCCC(=O)OCCC1CCN(CCCN2c3ccccc3Sc3ccc(S(=O)(=O)N(C)C)cc32)CC1 | inactive: -1.3 | inactive: 0.671 | inactive: -0.253 |
| CC(=O)OCC[N+](C)(C)C [Miochol] | inactive: -1.08 | – | inactive: 0.0117 |
| CC(=O)OCC[N+](C)(C)C | – | inactive: -0.229 | – |
| Cn1nnnc1SCC1=C(C(=O)O)N2C(=O)[C@@H](NC(=O)/C(=N/OCC(=O)O)c3ccn[nH]3)[C@H]2SC1 | inactive: -0.00218 | inactive: -0.971 | inactive: 0.895 |
| Nc1nc2c(ncn2OCCCO)c(=O)[nH]1 | inactive: -0.726 | inactive: -0.246 | inactive: -0.816 |
| O=C(O)CCC/C=C\C[C@@H]1CO[C@H](C(F)(F)F)O[C@@H]1c1ccccc1O | inactive: -2.38 | inactive: 0.268 | inactive: -1.01 |
| CCn1cnc(C(=O)NC)c1C(=O)NC [Ethimizol] | inactive: 0.377 | inactive: 2.08 | inactive: 0.272 |
| CC(NC(=O)C(CS)C(C)c1ccccc1)C(=O)O (single isomer, unassigned) [unknown stereoisomer of RB-105] | – | inactive: 0.597 | – |
| CC(=O)OC[C@H](N)C(=O)O [Thromboxol] | inactive: -1.23 | inactive: -1.67 | inactive: 0.459 |
| CNCCC(c1cccc(F)c1)c1cccc(F)c1 [delucemine hydrochloride] | inactive: 0.692 | inactive: 0.762 | inactive: 0.134 |
| CN1CCN(c2nccn(CCOc3cc(F)c(F)cc3F)c2=O)CC1 | inactive: 0.998 | inactive: -0.689 | inactive: -1.44 |
| O=C([O][Cr]([O]C(=O)c1ccccn1)[O]C(=O)c1ccccn1)c1ccccn1 [Chromium picolinate] | inactive: 0.466 | inactive: -1.26 | inactive: 0.875 |
| CC(=O)c1ccc2c(c1)[C@H](NC(=O)c1ccc(F)c(Cl)c1)[C@H](O)C(C)(C)O2 [tonabersat] | inactive: 0.198 | inactive: -1.31 | inactive: 0.785 |

A run of entries from the list above, for reference:

| SMILES | TEAD-luciferase reporter activity (compound concentration: 200 nM) | TEAD-luciferase reporter activity (compound concentration: 2 uM) | TEAD-luciferase reporter activity (compound concentration: 10 uM) |
| --- | --- | --- | --- |
| CC(C)NCC(O)COc1ccc(CCOCC2CC2)cc1 (stereo unspecified) [betaxolol, ophthalmic] | – | inactive: -1.4 | – |
| C=CCCCCCCCCC(=O)OCCC1CCN(CCCN2c3ccccc3Sc3ccc(S(=O)(=O)N(C)C)cc32)CC1 | inactive: -1.3 | inactive: 0.671 | inactive: -0.253 |
| CC(=O)OCC[N+](C)(C)C [Miochol] | inactive: -1.08 | – | inactive: 0.0117 |
| CC(=O)OCC[N+](C)(C)C | – | inactive: -0.229 | – |

Later entries

| SMILES | TEAD-luciferase reporter activity (compound concentration: 200 nM) | TEAD-luciferase reporter activity (compound concentration: 2 uM) | TEAD-luciferase reporter activity (compound concentration: 10 uM) |
| --- | --- | --- | --- |
| O=C(O)COCCN1CCN(C(c2ccccc2)c2ccc(F)cc2)CC1 (stereo unspecified) | inactive: -0.531 | inactive: 0.747 | inactive: 0.346 |
| COC(=O)N(C)c1c(N)nc(-c2nn(Cc3ccccc3F)c3ncccc23)nc1N [riociguat] | – | inactive: 0.936 | – |
| COC(=O)N(C)c1c(N)nc(-c2nn(Cc3ccccc3F)c3ncccc23)nc1N [Riociguat] | inactive: -0.901 | – | inactive: -1.03 |
| COc1ccc2c(O[C@@H]3C[C@H]4C(=O)N[C@]5(C(=O)NS(=O)(=O)C6CC6)C[C@H]5/C=C\CCCCN(C)C(=O)[C@@H]4C3)cc(-c3nc(C(C)C)cs3)nc2c1C [Simeprevir] | inactive: -0.511 | inactive: -1.3 | inactive: -0.14 |
| CC(C)(Oc1ccc(C2CC2(Cl)Cl)cc1)C(=O)O (stereo unspecified) [ciprofibrate] | inactive: -0.233 | inactive: -0.503 | inactive: 0.131 |
| CCOC(=O)c1ccc(O)cc1 | inactive: 0.312 | inactive: -2.23 | inactive: -1.63 |
| CCCCSc1nc(C)c(CC(=O)O)s1 | inactive: 0.197 | inactive: 3.03 | inactive: -1.65 |
| O=c1ccn(CCO)c(C(O)c2ccccc2)c1O (stereo unspecified) | inactive: 0.481 | inactive: -1.5 | inactive: -0.879 |
| COCCOCOc1ccc(C(=O)/C=C/c2ccc(C(=O)O)cc2)cc1C12CC3CC(CC(C3)C1)C2 | inactive: 2.16 | inactive: 4.65 | inactive: 0.361 |
| CC[N+](C)(CC)CCOC(=O)C(O)(c1ccccc1)C1CCCCC1 (stereo unspecified) | inactive: 0.0633 | inactive: 0.184 | inactive: -1.36 |
| CCCCCCCCCCCCCCCC(=O)OC[C@H](O)[C@H]1OC(=O)C(=O)C1O (stereo partly specified) | inactive: 1.18 | inactive: -0.693 | inactive: 2.69 |
| Cn1cc(-c2ccncc2)c(-c2ccc(OCc3ccc4ccccc4n3)cc2)n1 | inactive: 0.865 | inactive: -1.73 | inactive: 1.16 |
| Cc1ccc(O)c(-c2cc(-c3ccccc3)[nH]n2)c1 | inactive: 2.05 | active: 5.44 | inactive: 2.07 |
| CCC(C)(C)NC(=N)NC#N [Guancidine] | inactive: -1.93 | inactive: -0.595 | inactive: -0.921 |
| c1ccc2c(c1)Sc1ccccc1N2CCN1CCCC1 | inactive: -0.681 | inactive: 0.0758 | inactive: 4.7 |
| Cc1cc(OCC2CCN(C(=N)N)CC2)cc(OS(=O)(=O)c2ccccc2Cl)c1 [thrombin inhibitors, 3-D] | inactive: -1.47 | inactive: -1.15 | inactive: 1.74 |
| Nc1ncnc2c1ncn2C1OC(CO)C(O)C1O (stereo unspecified) [Adenoscan] | inactive: -0.204 | inactive: -2.26 | inactive: -1.62 |
| OCC1OC(n2cnc3c(S)ncnc32)C(O)C1O (stereo unspecified) | inactive: 1.03 | inactive: 0.337 | inactive: 1.73 |
| CCOc1ccc2ccccc2c1C(=O)N[C@@H]1C(=O)N2[C@@H]1SC(C)(C)[C@@H]2C(=O)O [Nafcillin sodium] | inactive: 0.109 | inactive: 0.0399 | active: 7.08 |

| SMILES | TEAD-luciferase reporter activity (compound concentration: 200 nM) | TEAD-luciferase reporter activity (compound concentration: 2 uM) | TEAD-luciferase reporter activity (compound concentration: 10 uM) |
| --- | --- | --- | --- |
| CC1=CCCC(C)(C)C12CCC(C)O2 (stereo unspecified) | inactive: -0.492 | inactive: -0.299 | inactive: -1.45 |
| C=CC1=C(C)C2=Cc3c(C)c(CCC(=O)O)c4[n]3[Fe]([Cl])[n]3c(c(C)c(C=C)c3=CC3=NC(=C4)C(CCC(=O)O)=C3C)=CC1=N2 | inactive: -0.632 | inactive: -0.456 | inactive: 0.0655 |
| CCCCCCCCCCCCCCCCCCCC(=O)N[C@H]1CC[C@]2(C)C3C[C@H](O)[C@@]4(C)C(CC[C@@H]4[C@H](C)CCC(=O)O)[C@@H]3[C@H](O)C[C@@H]2C1 (stereo partly specified) [Aramchol] | inactive: 0.904 | inactive: 1.35 | inactive: 1.05 |
| O=C(OCC(O)CO)c1ccccc1Nc1ccnc2c(C(F)(F)F)cccc12 (stereo unspecified) [floctafenine] | inactive: 0.854 | inactive: 0.763 | inactive: 0.739 |
| CC1=C(c2ccc(NN=C(C#N)C#N)cc2)NNC(=O)C1 [levosimendan] | inactive: -1.53 | inactive: 0.137 | inactive: 0.749 |
| CCc1cc(C(C)=O)c(O)cc1OCCCCCC(C)(C)c1nnn[nH]1 | inactive: -1.16 | inactive: 1.23 | inactive: 0.176 |
| CC(=O)Nc1ccc(OC(=O)c2ccccc2O)cc1 | inactive: -0.504 | inactive: -0.592 | inactive: 0.61 |
| FC(F)(F)c1cc(Br)cc(Nc2nnc(Cc3ccncc3)c3ccccc23)c1 | inactive: -2.35 | inactive: -1.34 | inactive: -1.65 |
| CC(=O)N(C)C1(c2ccccc2)CCN(CCC[C@]2(c3ccc(Cl)c(Cl)c3)CCCN(C(=O)c3ccccc3)C2)CC1 [Osanetant] | active: 5.35 | inactive: -0.253 | inactive: -0.899 |
| Cc1c(Cn2c(C)nc3c(C(=O)O)cc(N4CCOCC4)cc32)cccc1C(F)(F)F | inactive: 1.22 | inactive: 1.35 | inactive: -0.648 |
| CCN(CC)CCNC(=O)c1ccc(N)cc1 [procainamide, Elan] | – | inactive: 0.231 | – |
| CCN(CC)CCNC(=O)c1ccc(N)cc1 [Pronestyl] | inactive: 0.344 | – | inactive: -0.747 |
| NC(=O)c1cc[n+](COC[n+]2ccccc2/C=N/O)cc1 | inactive: -0.954 | inactive: 1.6 | inactive: -0.334 |
| CCOc1ccc(NC(=O)C(C)O)cc1 (stereo unspecified) | inactive: -1.96 | inactive: -1.79 | inactive: -0.591 |
| O=C(O)C[CH2][Ge](=[O])[O][Ge](=[O])[CH2]CC(=O)O [proxigermanium] | inactive: 0.15 | inactive: -1.04 | inactive: 1.86 |
| Nc1ncnc2c1ncn2[C@@H]1O[C@@H]2COP(=O)(S)O[C@@H]3[C@@H](O)[C@H](COP(O)(=S)O[C@H]2[C@H]1O)O[C@H]3n1cnc2c(N)ncnc21 (stereo partly specified) | inactive: -0.463 | inactive: 1.39 | inactive: 1.25 |
| C[C@@]1(C(=O)N[C@@H](CCC(=O)O)C(=O)O)CCCN1C(=O)CN [Trofinetide] | inactive: -1.79 | inactive: -0.0762 | inactive: -0.374 |
| COC(=O)[C@H](Cc1ccccc1)NC(=O)c1ccc(C(F)(F)F)cc1 | inactive: 0.246 | inactive: -0.484 | inactive: 0.385 |
| Cc1cccc(C)c1NC(=O)CN1CCCCCC1 [pincainide] | inactive: -0.586 | inactive: -0.876 | inactive: 0.347 |
